Paper PMC6482240
These are yes or no findings as the source states them, for the method shown. Binding seen in cells or lysates may run through a third protein. Some entries that bind do so weakly or less than the wild type. Where a sequence is shown, tags or fusion partners need not be part of it.

Experiments:
GST-mGlu5 (-TQSSSSL) = target: T1, GST-mGlu5 (-TQSSSSL); assay: pull-down; GST-fused C-terminal heptapeptides on glutathione Sepharose 4B beads, incubated with lysate containing MAL-PDZ Tamalin; 1 mg/mL BSA, PTx buffer (PBS, 0.1% Triton X-100, pH 7.4), 4 h at 4°C, with or without synthetic peptides; retained MAL-PDZ Tamalin read by dot blot array with anti-MAL antibody; only the target purified
T1 sequence: TQSSSSL

GST-mGlu1 (-KQSSSTL) = target: T2, GST-mGlu1 (-KQSSSTL); assay: as above
T2 sequence: KQSSSTL

- binding (GST-mGlu5 (-TQSSSSL)): binds
- binding (GST-mGlu1 (-KQSSSTL)): binds
B1: MAL-PDZ Tamalin (domain or fragment, UniProt Q8R4T5 100-190)
chain: VLTLEKGDNQTFGFEIQTYGLHHREEQRVEMVTFVCRVHESSPAQLAGLTPGDTIASVNGLNVEGIRHREIVDIIKASGNVLRLETLYGTS
